Results as given in article PMC10686484.

Chains of the proteins cited; added tags and fusions are not shown. Lines headed by an entry give the natural chain unless they say otherwise; changes in a name come on top.
UniProt O88554: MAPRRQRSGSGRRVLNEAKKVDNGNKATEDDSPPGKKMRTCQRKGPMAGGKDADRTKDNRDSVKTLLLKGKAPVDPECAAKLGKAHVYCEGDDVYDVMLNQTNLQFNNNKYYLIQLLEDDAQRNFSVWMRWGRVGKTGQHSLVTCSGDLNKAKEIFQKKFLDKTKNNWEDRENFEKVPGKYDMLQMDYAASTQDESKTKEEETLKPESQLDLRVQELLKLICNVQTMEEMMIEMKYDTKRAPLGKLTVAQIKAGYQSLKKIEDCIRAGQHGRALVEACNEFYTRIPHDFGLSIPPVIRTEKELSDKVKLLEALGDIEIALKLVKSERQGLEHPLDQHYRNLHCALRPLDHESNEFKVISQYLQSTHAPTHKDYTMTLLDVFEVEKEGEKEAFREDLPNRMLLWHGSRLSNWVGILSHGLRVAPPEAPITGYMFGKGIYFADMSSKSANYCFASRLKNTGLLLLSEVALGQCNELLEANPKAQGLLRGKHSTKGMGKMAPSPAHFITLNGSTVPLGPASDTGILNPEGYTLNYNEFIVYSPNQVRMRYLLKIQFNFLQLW
UniProt P09874, whole entry: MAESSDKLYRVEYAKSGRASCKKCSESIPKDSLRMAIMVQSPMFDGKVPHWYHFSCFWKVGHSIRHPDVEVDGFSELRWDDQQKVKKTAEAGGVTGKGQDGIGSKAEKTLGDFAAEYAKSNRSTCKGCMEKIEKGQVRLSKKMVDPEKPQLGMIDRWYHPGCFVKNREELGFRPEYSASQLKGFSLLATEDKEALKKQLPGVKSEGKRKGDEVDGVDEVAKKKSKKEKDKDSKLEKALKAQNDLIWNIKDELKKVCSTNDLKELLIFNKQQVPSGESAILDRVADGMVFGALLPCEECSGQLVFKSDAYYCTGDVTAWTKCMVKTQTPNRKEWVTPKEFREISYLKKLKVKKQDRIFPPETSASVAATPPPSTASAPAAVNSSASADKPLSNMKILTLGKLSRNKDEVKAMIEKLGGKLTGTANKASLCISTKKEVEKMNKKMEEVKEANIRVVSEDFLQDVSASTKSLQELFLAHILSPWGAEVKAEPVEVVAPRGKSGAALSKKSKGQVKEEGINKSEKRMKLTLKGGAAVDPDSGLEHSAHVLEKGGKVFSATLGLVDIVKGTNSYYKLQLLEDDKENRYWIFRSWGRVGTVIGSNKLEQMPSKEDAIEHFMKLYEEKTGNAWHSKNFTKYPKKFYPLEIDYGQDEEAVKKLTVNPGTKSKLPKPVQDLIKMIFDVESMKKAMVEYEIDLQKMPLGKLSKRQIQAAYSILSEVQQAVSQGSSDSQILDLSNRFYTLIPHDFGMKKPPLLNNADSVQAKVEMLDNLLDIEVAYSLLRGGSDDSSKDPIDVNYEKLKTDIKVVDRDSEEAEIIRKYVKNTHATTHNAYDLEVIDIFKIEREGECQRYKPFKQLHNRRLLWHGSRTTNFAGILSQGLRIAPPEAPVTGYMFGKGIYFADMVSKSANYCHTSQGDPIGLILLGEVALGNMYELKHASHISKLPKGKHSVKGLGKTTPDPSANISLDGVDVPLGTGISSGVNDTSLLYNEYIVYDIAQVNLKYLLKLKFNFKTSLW

Assays:
PARP2 (murine) = PARP2 (murine) (UniProt O88554); test: EMSA; settings: 500 uM NAD+ (automodified PARP2); EMSA: 50 mM Tris-HCl pH 7.5, 100 mM NaCl, 1 mM DTT, 0.1 mg/ml BSA (oligo dsDNA only), 10 mM MgCl2 if indicated (always for plasmid), 4 C, 30 min; recombinant protein; label: 5'-32P on DNA2 (target strand)
PARP1 (human) = PARP1 (human) (UniProt P09874); test: EMSA; settings: 500 uM NAD+ (automodified PARP1); EMSA: 50 mM Tris-HCl pH 7.5, 100 mM NaCl, 1 mM DTT, 0.1 mg/ml BSA (oligo dsDNA only), 10 mM MgCl2 if indicated (always for plasmid), 4 C, 30 min; recombinant protein; label: 5'-32P on DNA2 (target strand)

CTGATAACTCAATTTGTAAAAAATGGTACTGAGCA (double strand) [dsDNA1/2*]
binding result (PARP2 (murine)): binds more weakly
binding result (PARP1 (human)): binds more weakly

The exact form of at least one protein or probe is not confirmed. The comparison behind a weaker result is the experiment's own reference, which may not be listed here.
